Data on three substances can be found in paper PMC13247160.

By UniProt entry, the sequences of proteins in these tests, tags left out. Where a name states a change or a piece, a line headed by the entry shows the natural chain unless it says otherwise. Residues count along the entry.
UniProt Q92905: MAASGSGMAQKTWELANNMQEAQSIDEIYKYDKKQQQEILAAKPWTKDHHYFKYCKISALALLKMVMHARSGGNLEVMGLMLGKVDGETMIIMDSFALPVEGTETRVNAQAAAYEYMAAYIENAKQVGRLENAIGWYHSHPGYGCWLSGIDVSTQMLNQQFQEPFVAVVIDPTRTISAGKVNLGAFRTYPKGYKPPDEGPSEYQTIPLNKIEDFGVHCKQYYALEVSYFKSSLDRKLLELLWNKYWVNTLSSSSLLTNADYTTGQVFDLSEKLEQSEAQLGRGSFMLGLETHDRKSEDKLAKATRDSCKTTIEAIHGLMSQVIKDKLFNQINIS
MPN enzymatic domain of JAB1: residues 55-192 of Q92905
UniProt Q13620: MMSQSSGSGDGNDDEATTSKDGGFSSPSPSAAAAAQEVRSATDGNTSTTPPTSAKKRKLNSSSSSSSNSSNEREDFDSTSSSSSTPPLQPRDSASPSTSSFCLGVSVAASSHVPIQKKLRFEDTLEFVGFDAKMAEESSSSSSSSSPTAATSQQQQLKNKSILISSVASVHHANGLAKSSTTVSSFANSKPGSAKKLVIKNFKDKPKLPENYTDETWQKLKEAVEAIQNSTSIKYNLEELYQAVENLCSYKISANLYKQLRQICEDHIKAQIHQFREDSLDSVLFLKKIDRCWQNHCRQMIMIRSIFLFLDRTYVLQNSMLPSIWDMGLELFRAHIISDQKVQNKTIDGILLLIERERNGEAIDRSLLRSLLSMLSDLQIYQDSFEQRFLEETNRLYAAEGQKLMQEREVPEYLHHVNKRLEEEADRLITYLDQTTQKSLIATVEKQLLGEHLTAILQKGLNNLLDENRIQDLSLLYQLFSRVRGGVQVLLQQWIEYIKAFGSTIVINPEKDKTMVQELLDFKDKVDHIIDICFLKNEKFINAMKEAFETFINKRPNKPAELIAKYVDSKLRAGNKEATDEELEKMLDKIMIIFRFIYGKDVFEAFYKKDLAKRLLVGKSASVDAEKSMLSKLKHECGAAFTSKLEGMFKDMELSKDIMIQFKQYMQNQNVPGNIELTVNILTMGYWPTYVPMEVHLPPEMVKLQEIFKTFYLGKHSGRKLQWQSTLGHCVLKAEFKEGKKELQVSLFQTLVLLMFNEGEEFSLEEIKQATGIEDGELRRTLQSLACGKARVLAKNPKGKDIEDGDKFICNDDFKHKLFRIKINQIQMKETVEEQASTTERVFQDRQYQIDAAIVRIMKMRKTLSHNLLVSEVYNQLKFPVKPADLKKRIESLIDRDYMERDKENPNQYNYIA

These are yes or no findings as the source states them, for the method shown. Binding seen in cells or lysates may run through a third protein. Some results given as binding are weak or reduced against the parent protein; the word gives no strength.

The target in assay [1] is C-Jun activation domain-binding protein-1 (JAB1), FLAG-tagged (UniProt Q92905). The assay can be described thus: co-IP; elution fractions of the FLAG-JAB1 immunopurification from MDA-MB-231 cells, western blotting. (In general: In western blotting, separated proteins are transferred to a membrane and probed.)
Assay [2] addresses MPN enzymatic domain of JAB1 (UniProt Q92905). The assay can be described thus: pull-down; GST fusion protein purified on Glutathione-Sepharose 4B beads mixed with in vitro transcription/translation products (rabbit reticulocyte lysate, TNT system); western blotting; only the target purified.
For assay [3], the target named is CUL4B (GST pull-down experiments) (UniProt Q13620). Described as above.

As to “CUL4B (Cullin 4B; endogenous, MDA-MB-231) (from UniProt Q13620 1-913)”, the binding entry in assay [1] is given as “binds”.
On to “CUL4B (GST pull-down experiments) (from UniProt Q13620 1-913)”, for which, in assay [2], the binding result is “binds”.
Regarding “JAB1 (GST pull-down experiments) (from UniProt Q92905 1-334)”, in assay [3], the binding entry is listed as “binds”.
